Values quoted from earlier work in patent US20050249799A1, “Polymeric drug delivery system for hydrophobic drugs” (Spherics, Inc., priority 2004, published 2005).
At least one compound was matched to its structure with a doubt left.

Conditions: above pH 4

SMILES: CCC(C)n1ncn(-c2ccc(N3CCN(c4ccc(OCC5COC(Cn6cncn6)(c6ccc(Cl)cc6Cl)O5)cc4)CC3)cc2)c1=O (stereo not shown) [itraconazole, Itraconazole]
- dissolution of the drug: negligible
